This passage reports MIC results from paper PMC10714399, “Open Source Antibiotics: Simple Diarylimidazoles Are Potent against Methicillin-Resistant Staphylococcus aureus” (ACS Infectious Diseases, 2023).

The structures appear in SMILES notation.

The term MIC denotes the lowest concentration found to suppress growth.

The subject of this test is Candida albicans ATCC 90028. The test is described as follows: CO-ADD antifungal assay, C. albicans. Format: cell-based. The following applies: ATCC90028. As for the experimental part: Hit Confirmation of active compounds by whole cell growth inhibition assays was conducted as an 8-point dose response to determine the Minimum Inhibitory Concentration (MIC), in duplicate (n=2). The inhibition of growth is measured against those microorganisms that […]
Included in the Hit Confirmation were 5 bacteria: Escherichia coli, Klebsiella pneumoniae, Acinetobacter baumannii, Pseudomonas aeruginosa and Staphylococcus aureus, and 2 fungi Candida albicans and Cryptococcus neoformans.
In addition to determining MIC, active compounds were counter screened for cytotoxicity against a human embryonic kidney cell line, HEK293, by determining their CC50 value. The compounds were also screened for haemolysis of human red blood cells.
Assay Parameters Bacteria Fungi HEK293 Haemolysis […]
Duplicate (n=2) Duplicate (n=2) Duplicate (n=2) Duplicate (n=2)
QC Control MIC: Control MIC: Control CC50: Control HC10:
Non-Binding Non-Binding TC, 384-well Polypropylene […]
Fungi strains were cultured for 3 days on Yeast Extract-Peptone Dextrose (YPD) agar at 30 °C. A yeast suspension of 1 x 10^6 to 5 x 10^6 CFU/mL (as determined by OD530) was prepared from five colonies. […]
In both cases, the percentage of growth inhibition was calculated for each well, using the negative control (media only) and positive control (fungi without inhibitors) on the same plate. […]
Reading Plates - Haemolysis Clear 384w Corning 3680 […]

For the compound `OC(Cn1cncn1)(Cn1cncn1)c1ccc(F)cc1F` [Fluconazole], the minimum inhibitory concentration (MIC) worked out at 0.125 µg/mL.
